The values below come from patent publication US20220119531A1.

Sequences of proteins named here, by UniProt entry; tags and fusion partners are left off. A change or cut given only in a name is not applied to a line headed by its entry. A line that says so, or that is headed by a name, gives the form on record, which may keep a tag or linker.
UniProt Q9NZQ7: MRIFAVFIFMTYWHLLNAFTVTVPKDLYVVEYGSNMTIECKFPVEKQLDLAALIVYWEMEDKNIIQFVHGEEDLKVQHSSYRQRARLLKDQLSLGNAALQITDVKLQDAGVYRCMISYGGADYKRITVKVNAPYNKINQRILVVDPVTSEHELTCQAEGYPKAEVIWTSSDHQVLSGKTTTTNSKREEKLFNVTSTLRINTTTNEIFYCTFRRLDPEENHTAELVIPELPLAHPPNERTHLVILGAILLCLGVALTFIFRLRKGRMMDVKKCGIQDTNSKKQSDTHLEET
rhesus PD-L1-Fc protein (F6PJN1, form named): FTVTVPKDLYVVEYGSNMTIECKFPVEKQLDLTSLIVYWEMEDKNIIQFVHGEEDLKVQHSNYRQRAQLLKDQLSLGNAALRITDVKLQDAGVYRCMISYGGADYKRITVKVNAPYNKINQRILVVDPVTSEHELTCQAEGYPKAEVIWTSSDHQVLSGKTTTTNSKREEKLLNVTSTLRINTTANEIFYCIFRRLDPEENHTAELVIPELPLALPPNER

In experiment [1] the target is human PD-L1-Fc protein (human) (UniProt Q9NZQ7). As to the kind of experiment: ELISA, plate coated with human PD-L1-Fc (FIG. 19). (An ELISA detects its analyte on a solid surface through an enzyme-linked reagent.)
The target is the same in experiment [2]. As to the kind of experiment: ELISA, plate coated with human PD-L1-Fc (2 µg/ml), OD450.
Experiment [3] has as its target human PD-L1 (form in the assay not stated) (human) (UniProt Q9NZQ7). As to the kind of experiment: Octet Red 96 affinity ranking. A general note: Biolayer interferometry detects binding as a change in optical thickness at a sensor tip.
Experiment [4] addresses rhesus PD-L1-Fc protein (rhesus) (UniProt F6PJN1). Nature of the experiment: ELISA (FIG. 8).
Experiment [5] has the same target. As to the kind of experiment: ELISA, plate coated with rhesus PD-L1-Fc (FIG. 8).

No constants are given. Whether binding was seen depends on the method and setting. Some results given as binding are weak or reduced against the parent protein; the word gives no strength.

B1: B1 (antibody, V domains shown)
VH: EVQLVESGGGLVQPGGSLRLSCAASGFTFSSYDMSWVRQAPGKSLEWVATISDAGGYIYYRDSVKGRFTISRDNAKNSLYLQMNSLRDEDTAVYICAREIFNRYALDYWGQGTTVTVSS
VL: DIQMTQSPSSLSASVGDRVTITCKASQDVTPAVAWYQQKPGKAPKLLIYSTSSRYTGVPSRFSGSGSGTDFTFTISSLQPEDIATYYCQQHYTTPLTFGQGTKLEIK
Take B1: the binding entry in experiment [1] and in experiment [2] was “binds” each time.

B2: Hu1210-8 (antibody, V domains shown)
VH: EVQLVESGGGLVKPGGSLRLSCAASGFTFSSYDMSWVRQAPGKGLEWVATISDGGGYIYYSDSVKGRFTISRDNAKNSLYLQMNSLRAEDTAVYYCAREFGKRYALDYWGQGTTVTVSS
VL: DIQMTQSPSSLSASVGDRVTITCKASQDVTPAVAWYQQKPGKSPKLLIYSTSSRYTGVPSRFSGSGSGTDFTFTISSLQPEDIATYYCQQHYTTPLTFGQGTKLEIK
In the case of B2, the binding entry in experiment [3] is recorded as “binds”.

B3: Hu1210-41 (antibody, V domains shown)
VH: EVQLVESGGGLVQPGGSLRLSCAASGFTFSSYDMSWVRQAPGKSLEWVATISDAGGYIYYSDSVKGRFTISRDNAKNSLYLQMNSLRDEDTAVYICAREFGKRYALDYWGQGTTVTVSS
VL: DIQMTQSPSSLSASVGDRVTITCKASQDVTPAVAWYQQKPGKAPKLLIYSTSSRYTGVPSRFSGSGSGTDFTFTISSLQPEDIATYYCQQHYTTPLTFGQGTKLEIK
Turning to B3, the binding entry in experiment [4] and in experiment [5] was “binds” in each case.
